Literature values in US20240317791A1 (priority 2021, published 2024).
Where two headings read alike, the source gives them in different places.

Conditions: cited from earlier work

## C[C@@H]1[C@H](O)[C@@H](C)/C=C/C=C/C=C/C=C/C=C/C=C/C=C/[C@H](O[C@@H]2O[C@H](C)[C@@H](O)[C@H](N)[C@@H]2O)C[C@@H]2O[C@](O)(C[C@@H](O)C[C@@H](O)[C@H](O)CC[C@@H](O)C[C@@H](O)CC(=O)O[C@H]1C)C[C@H](O)[C@H]2C(=O)O [Amphotericin B]
At physiological pH values
  water solubility: substantially water insoluble
In distilled water
  water solubility: < 1 µg/mL
